The supplement of paper PMC8728848
The list shows a part of the results.

How the values were obtained:
Experiment in all cases: glycan array binding signal (z-score within array); higher = stronger binding
Settings in all cases: glycan notation: IUPAC condensed, linker removed
Neu5Ac(a2-3)Gal = target: Neu5Ac(a2-3)Gal
Summary of the method: (§1)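 From the Consortium for Functional Glycomics database, 3228 arrays were curated, keeping only those whose protein sequence was available. Binding is given as a within-array Z-score averaged across arrays sharing a protein sequence and across linkers. Negative Z-scores can be read as non-binding.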

[1] = target: Neu5Ac(a2-3)Gal(b1-3)GalNAc
Summary of the method: as §1

[2] = target: Neu5Ac(a2-3)Gal(b1-3)GalNAc(b1-3)Gal(a1-4)Gal(b1-4)Glc
Summary of the method: as §1

[3] = target: Neu5Ac(a2-3)Gal(b1-3)GalNAc(b1-4)Gal(b1-4)Glc
Summary of the method: as §1

[4] = target: Neu5Ac(a2-3)Gal(b1-3)GalNAc(b1-4)[Neu5Ac(a2-3)]Gal(b1-4)Glc
Summary of the method: as §1

[5] = target: Neu5Ac(a2-3)Gal(b1-3)GalNAc(b1-4)[Neu5Ac(a2-8)Neu5Ac(a2-3)]Gal(b1-4)Glc
Summary of the method: as §1

[6] = target: Neu5Ac(a2-3)Gal(b1-3)GalNAc6S
Summary of the method: as §1

[7] = target: Neu5Ac(a2-3)Gal(b1-3)GlcNAc
Summary of the method: as §1

[8] = target: Neu5Ac(a2-3)Gal(b1-3)GlcNAc(b1-2)Man
Summary of the method: as §1

[9] = target: Neu5Ac(a2-3)Gal(b1-3)GlcNAc(b1-2)Man(a1-3)[GlcNAc(b1-4)][Neu5Ac(a2-3)Gal(b1-3)GlcNAc(b1-2)Man(a1-6)]Man(b1-4)GlcNAc(b1-4)GlcNAc
Summary of the method: as §1

[10] = target: Neu5Ac(a2-3)Gal(b1-3)GlcNAc(b1-2)Man(a1-3)[Neu5Ac(a2-3)Gal(b1-3)GlcNAc(b1-2)Man(a1-6)]Man(b1-4)GlcNAc(b1-4)GlcNAc
Summary of the method: as §1

[11] = target: Neu5Ac(a2-3)Gal(b1-3)GlcNAc(b1-2)[Neu5Ac(a2-3)Gal(b1-3)GlcNAc(b1-4)]Man(a1-6)[Neu5Ac(a2-3)Gal(b1-3)GlcNAc(b1-2)Man(a1-3)]Man(b1-4)GlcNAc(b1-4)GlcNAc
Summary of the method: as §1

[12] = target: Neu5Ac(a2-3)Gal(b1-3)GlcNAc(b1-3)Gal(b1-3)GlcNAc
Summary of the method: as §1

[13] = target: Neu5Ac(a2-3)Gal(b1-3)GlcNAc(b1-3)Gal(b1-4)GlcNAc
Summary of the method: as §1

[14] = target: Neu5Ac(a2-3)Gal(b1-3)GlcNAc(b1-3)GalNAc
Summary of the method: as §1

[15] = target: Neu5Ac(a2-3)Gal(b1-3)GlcNAc(b1-6)GalNAc
Summary of the method: as §1

[16] = target: Neu5Ac(a2-3)Gal(b1-3)GlcNAc6S
Summary of the method: as §1

[17] = target: Neu5Ac(a2-3)Gal(b1-3)[Fuc(a1-4)]GlcNAc
Summary of the method: as §1

[18] = target: Neu5Ac(a2-3)Gal(b1-3)[Fuc(a1-4)]GlcNAc(b1-3)Gal(b1-3)[Fuc(a1-4)]GlcNAc
Summary of the method: as §1

[19] = target: Neu5Ac(a2-3)Gal(b1-3)[Fuc(a1-4)]GlcNAc(b1-3)Gal(b1-4)[Fuc(a1-3)]GlcNAc
Summary of the method: as §1

[20] = target: Neu5Ac(a2-3)Gal(b1-3)[GlcNAc(b1-6)]GalNAc
Summary of the method: as §1

[21] = target: Neu5Ac(a2-3)Gal(b1-3)[Neu5Ac(a2-6)]GalNAc
Summary of the method: as §1

[22] = target: Neu5Ac(a2-3)Gal(b1-3)[Neu5Ac(a2-6)]GlcNAc(b1-3)[Fuc(a1-3)[Gal(b1-4)]GlcNAc(b1-6)]Gal(b1-4)Glc
Summary of the method: as §1

[23] = target: Neu5Ac(a2-3)Gal(b1-3)]Neu5Ac(a2-3)Gal(b1-4)]GlcNAc
Summary of the method: as §1

Neu5Ac(a2-3)Gal(b1-4)Glc = target: Neu5Ac(a2-3)Gal(b1-4)Glc
Summary of the method: as §1

[24] = target: Neu5Ac(a2-3)Gal(b1-4)GlcNAc
Summary of the method: as §1

[25] = target: Neu5Ac(a2-3)Gal(b1-4)GlcNAc(b1-2)Man
Summary of the method: as §1

[26] = target: Neu5Ac(a2-3)Gal(b1-4)GlcNAc(b1-2)Man(a1-3)[GlcNAc(b1-4)][Neu5Ac(a2-3)Gal(b1-4)GlcNAc(b1-2)Man(a1-6)]Man(b1-4)GlcNAc(b1-4)GlcNAc
Summary of the method: as §1

[27] = target: Neu5Ac(a2-3)Gal(b1-4)GlcNAc(b1-2)Man(a1-3)[Neu5Ac(a2-3)Gal(b1-4)GlcNAc(b1-2)Man(a1-6)]Man(b1-4)GlcNAc(b1-4)GlcNAc
Summary of the method: as §1

[28] = target: Neu5Ac(a2-3)Gal(b1-4)GlcNAc(b1-2)Man(a1-3)[Neu5Ac(a2-3)Gal(b1-4)GlcNAc(b1-2)Man(a1-6)]Man(b1-4)GlcNAc(b1-4)[Fuc(a1-6)]GlcNAc
Summary of the method: as §1

[29] = target: Neu5Ac(a2-3)Gal(b1-4)GlcNAc(b1-2)Man(a1-3)[Neu5Ac(a2-6)Gal(b1-4)GlcNAc(b1-2)Man(a1-6)]Man(b1-4)GlcNAc(b1-4)GlcNAc
Summary of the method: as §1

[30] = target: Neu5Ac(a2-3)Gal(b1-4)GlcNAc(b1-2)[Neu5Ac(a2-3)Gal(b1-4)GlcNAc(b1-4)]Man(a1-3)[GlcNAc(b1-4)][Neu5Ac(a2-3)Gal(b1-4)GlcNAc(b1-2)[Neu5Ac(a2-3)Gal(b1-4)GlcNAc(b1-6)]Man(a1-6)]Man(b1-4)GlcNAc(b1-4)GlcNAc
Summary of the method: as §1

[31] = target: Neu5Ac(a2-3)Gal(b1-4)GlcNAc(b1-2)[Neu5Ac(a2-3)Gal(b1-4)GlcNAc(b1-4)]Man(a1-3)[GlcNAc(b1-4)][Neu5Ac(a2-3)Gal(b1-4)GlcNAc(b1-4)Man(a1-6)]Man(b1-4)GlcNAc(b1-4)GlcNAc
Summary of the method: as §1

[32] = target: Neu5Ac(a2-3)Gal(b1-4)GlcNAc(b1-2)[Neu5Ac(a2-3)Gal(b1-4)GlcNAc(b1-6)]Man(a1-6)[Neu5Ac(a2-3)Gal(b1-4)GlcNAc(b1-2)Man(a1-3)][GlcNAc(b1-4)]Man(b1-4)GlcNAc(b1-4)GlcNAc
Summary of the method: as §1

[33] = target: Neu5Ac(a2-3)Gal(b1-4)GlcNAc(b1-3)Gal
Summary of the method: as §1

[34] = target: Neu5Ac(a2-3)Gal(b1-4)GlcNAc(b1-3)Gal(b1-3)GlcNAc
Summary of the method: as §1

[35] = target: Neu5Ac(a2-3)Gal(b1-4)GlcNAc(b1-3)Gal(b1-4)GlcNAc
Summary of the method: as §1

[36] = target: Neu5Ac(a2-3)Gal(b1-4)GlcNAc(b1-3)Gal(b1-4)GlcNAc(b1-2)Man(a1-3)[Neu5Ac(a2-3)Gal(b1-4)GlcNAc(b1-3)Gal(b1-4)GlcNAc(b1-2)Man(a1-6)]Man(b1-4)GlcNAc(b1-4)GlcNAc
Summary of the method: as §1

[37] = target: Neu5Ac(a2-3)Gal(b1-4)GlcNAc(b1-3)Gal(b1-4)GlcNAc(b1-3)Gal(b1-4)GlcNAc
Summary of the method: as §1

[38] = target: Neu5Ac(a2-3)Gal(b1-4)GlcNAc(b1-3)Gal(b1-4)GlcNAc(b1-3)Gal(b1-4)GlcNAc(b1-2)Man(a1-3)[Neu5Ac(a2-3)Gal(b1-4)GlcNAc(b1-3)Gal(b1-4)GlcNAc(b1-3)Gal(b1-4)GlcNAc(b1-2)Man(a1-6)]GalNAc
Summary of the method: as §1

[39] = target: Neu5Ac(a2-3)Gal(b1-4)GlcNAc(b1-3)Gal(b1-4)GlcNAc(b1-3)GalNAc
Summary of the method: as §1

[40] = target: Neu5Ac(a2-3)Gal(b1-4)GlcNAc(b1-3)Gal(b1-4)GlcNAc(b1-3)[Neu5Ac(a2-3)Gal(b1-4)GlcNAc(b1-3)Gal(b1-4)GlcNAc(b1-6)]GalNAc
Summary of the method: as §1

[41] = target: Neu5Ac(a2-3)Gal(b1-4)GlcNAc(b1-3)Gal(b1-4)GlcNAc(b1-6)[Gal(b1-3)]GalNAc
Summary of the method: as §1

[42] = target: Neu5Ac(a2-3)Gal(b1-4)GlcNAc(b1-3)Gal(b1-4)[Fuc(a1-3)]GlcNAc
Summary of the method: as §1

[43] = target: Neu5Ac(a2-3)Gal(b1-4)GlcNAc(b1-3)GalNAc
Summary of the method: as §1

B1: MUB70 (Lactobacillus reuteri) (protein)
chain: CVHVQYIDGETDQMLRQDDLDGYTDETIPYSTAEGIKKFEGDGYELFKDNFPAGEKFDNDDTNDQFYTVIF
In the case of B1, the “glycan array binding signal (z-score)” value (Neu5Ac(a2-3)Gal) is reported as -1.31, the “glycan array binding signal (z-score)” value [1] is reported as -0.295 and the “glycan array binding signal (z-score)” value [2] is reported as -0.328. The “glycan array binding signal (z-score)” value [3] was -0.884, the “glycan array binding signal (z-score)” value [4] was 0.667 and the “glycan array binding signal (z-score)” value [5] was -0.528. The “glycan array binding signal (z-score)” value [6] was -0.112, the “glycan array binding signal (z-score)” value [7] was -0.286 and the “glycan array binding signal (z-score)” value [8] was 0.03. The “glycan array binding signal (z-score)” value [9] was -0.263, the “glycan array binding signal (z-score)” value [10] was -0.652 and the “glycan array binding signal (z-score)” value [11] was 6.11. For the same binder, the “glycan array binding signal (z-score)” value [12] was 0.438, the “glycan array binding signal (z-score)” value [13] was -0.139 and the “glycan array binding signal (z-score)” value [14] was -0.225. For the same binder, the “glycan array binding signal (z-score)” value [15] was 0.075, the “glycan array binding signal (z-score)” value [16] was -0.001 and the “glycan array binding signal (z-score)” value [17] was 0.289. For the same binder, the “glycan array binding signal (z-score)” value [18] was 0.176, the “glycan array binding signal (z-score)” value [19] was -0.008 and the “glycan array binding signal (z-score)” value [20] was 0.859. The “glycan array binding signal (z-score)” value [21] was 1.18, the “glycan array binding signal (z-score)” value [22] was 0.566 and the “glycan array binding signal (z-score)” value [23] was 0.023. For the same binder, the “glycan array binding signal (z-score)” value (Neu5Ac(a2-3)Gal(b1-4)Glc) was -0.662, the “glycan array binding signal (z-score)” value [24] was 0.399 and the “glycan array binding signal (z-score)” value [25] was 0.365. The “glycan array binding signal (z-score)” value [26] was -0.142, the “glycan array binding signal (z-score)” value [27] was -0.039 and the “glycan array binding signal (z-score)” value [28] was -0.117. For the same binder, the “glycan array binding signal (z-score)” value [29] was 0.65, the “glycan array binding signal (z-score)” value [30] was 0.048 and the “glycan array binding signal (z-score)” value [31] was -0.534. The “glycan array binding signal (z-score)” value [32] was 0.003, the “glycan array binding signal (z-score)” value [33] was 0.155 and the “glycan array binding signal (z-score)” value [34] was 0.45. For the same binder, the “glycan array binding signal (z-score)” value [35] was -0.551, the “glycan array binding signal (z-score)” value [36] was -0.132 and the “glycan array binding signal (z-score)” value [37] was -0.421. For the same binder, the “glycan array binding signal (z-score)” value [38] was -0.117, the “glycan array binding signal (z-score)” value [39] was 1.52 and the “glycan array binding signal (z-score)” value [40] was 0.133. For the same binder, the “glycan array binding signal (z-score)” value [41] was -0.349, the “glycan array binding signal (z-score)” value [42] was -0.54 and the “glycan array binding signal (z-score)” value [43] was 0.669.
